Laboratory results from article doi:10.1101/2021.08.17.456253.
Results are given in words; binding and its absence hold for the method and conditions named. In cells and extracts the contact can be indirect. A yes stands for co-enrichment or nearness to the bait. Other partners may have been found.

Amino acid sequences for entries named in this document (tags omitted).
UniProt Q8CJG0: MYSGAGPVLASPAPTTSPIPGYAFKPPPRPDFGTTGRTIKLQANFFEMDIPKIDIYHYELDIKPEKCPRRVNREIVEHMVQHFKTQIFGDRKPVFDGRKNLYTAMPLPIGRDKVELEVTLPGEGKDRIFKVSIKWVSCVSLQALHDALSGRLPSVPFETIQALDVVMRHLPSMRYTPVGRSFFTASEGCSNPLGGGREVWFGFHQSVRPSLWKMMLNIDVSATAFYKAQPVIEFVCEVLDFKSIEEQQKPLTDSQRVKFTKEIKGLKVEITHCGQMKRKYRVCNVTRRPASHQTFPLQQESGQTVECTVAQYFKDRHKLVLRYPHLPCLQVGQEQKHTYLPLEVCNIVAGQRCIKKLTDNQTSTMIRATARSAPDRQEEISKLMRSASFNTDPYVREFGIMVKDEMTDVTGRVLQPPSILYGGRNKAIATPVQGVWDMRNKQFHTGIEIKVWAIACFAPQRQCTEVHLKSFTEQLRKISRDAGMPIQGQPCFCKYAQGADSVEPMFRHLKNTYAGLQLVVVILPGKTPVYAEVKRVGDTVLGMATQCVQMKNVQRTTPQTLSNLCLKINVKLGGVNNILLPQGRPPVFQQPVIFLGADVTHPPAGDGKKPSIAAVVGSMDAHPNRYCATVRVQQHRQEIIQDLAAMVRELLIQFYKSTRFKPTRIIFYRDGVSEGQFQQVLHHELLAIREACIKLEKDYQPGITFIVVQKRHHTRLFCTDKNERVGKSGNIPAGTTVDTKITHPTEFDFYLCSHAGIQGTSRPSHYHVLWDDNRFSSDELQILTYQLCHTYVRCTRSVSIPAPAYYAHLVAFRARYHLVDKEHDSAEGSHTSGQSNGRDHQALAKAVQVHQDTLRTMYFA

Target: Argonaute RISC Catalytic Component 2 (AGO2) (mouse (endogenous in round spermatids)) (UniProt Q8CJG0)
Assay: affinity purification with mass spectrometry

B1: nuclear export factor NXF1 (protein, UniProt Q99JX7 1-618)
chain: MADEGKSYNEHDDRVSFPQRRKKGRGPFRWKCGEGNRRSGRGGSGVQSSRFEEDDGDVAMNDPQDGPRVRYNPYTNRPNRRGDGWHDRDRIHITVRRDRAPAERGGAGTSQDGTTKNWFKITIPYGRKYDKTWLLSMIQSKCSVPFNPIEFHYENTRAHFFVEDATTASALKGVNHKIQDRENRRISIIINASAPPYTVQNELKPEQIEQLKLIMSKRYDGNQQALDLKGLRSDPDLVAQNIDVVLNRRSCMAATLRIIEENIPELLSLNLSSNRLYKLDDMSSIVQKAPNLKTLNLSGNELKTERELDKIKGLKLEELWLDRNPMCDNFGDQSSYISAIRERFPKLLRLDGHELPPPISFDVEAPTMLPPCKGSYFGTENLKSLVLRFLQQYYVIYDSGDRQGLLYAYHDGACCSLSIPYNPQNPVRKNLAEYVKDSRNVKKLKEPTQRFRLLKHTRLNVVAFLNELPKTQHDVNAFVVDISAQTSTLLCFSVNGVFKEVDGKSRDSLRAFTRTFIAVPASNSGLCIVNDELFVRNASPEEIQRAFAMSAPTPSSSPVPTLSPEQQEMLQAFSTQSGMNLEWSQKCLQDNNWDYTRSAQAFTLLKAKGEIPEVAFMK
  binding: binds
